Assay results: the supplement of paper PMC8256030
“And” between values parts separate entries of the source, which are not always exact repeats. Equal values may be shown once. The list shows a part of the results. Single values are uncertain here, since repeats match poorly.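 HEK293T cells were given each compound shortly before transfection with a reporter in which red mCherry is followed by the SARS-CoV-2 frameshift element and then GFP in the −1 frame, so GFP appears only after frameshifting.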

System: HEK293T
Test: percent viability (nuclei count) relative to control; higher = more viable cells
Conditions: 10 µM; 24 h

Row | Compound | percent viability
1 | CC1(C)S[C@@H]2[C@H](NC(=O)[C@H](N)c3ccc(O)cc3)C(=O)N2[C@H]1C(=O)O [amoxicillin] | 153%
2 | C=C1CC[C@H](O)C/C1=C/C=C1\CCC[C@]2(C)[C@@H]([C@H](C)CCCC(C)(C)O)CC[C@@H]12 [calcifediol] | 227% and 379%
3 | Cc1c(N(C)CS(=O)(=O)O)c(=O)n(-c2ccccc2)n1C [metamizole sodium] | 358%
4 | O=C(O)Cc1ccc(CCNS(=O)(=O)c2ccc(Cl)cc2)cc1 [daltroban] | 118%
